In article PMC9974466 (Proceedings of the National Academy of Sciences of the …, 2023):

B1: pro[P1]PTH: mutant pro-hormone secreted by COS-7 cells expressing prepro[P1]PTH(1-84) and present in patients' plasma (protein, UniProt P01270 26-115, looked up, variant S1P)
pro-form: KSVKKRPVSEIQLMHNLGKHLNSMERVEWLRKKLQDVHNFVALGAPLAPRDAGSQRPRKKEDNVLVESHEKSLGEADKADVNVLTKAKSQ
modifications: pro-form
notes: mutant pro-hormone secreted by COS-7 cells expressing prepro[P1]PTH(1-84) and present in patients' plasma

System: intact PTH assay antibodies: capture anti-PTH(39-84), detection anti-PTH(13-34)
Assay: PTH concentration in CM/fractions/plasma by intact PTH assay (Immutopics ELISA)
Details: for Dilution parallelism in intact PTH assay: serial dilutions vs PTH(1-84) standard curve

Molecule	Dilution parallelism in intact PTH assay	Concentration of pro[P1]PTH in undiluted CM (COS-7 cells transfected in T175 flask with prepro[P1]PTH(1-84) plasmid, intact PTH assay, used as standard)
SVSEIQ … LMHNLGKHLNSMERVEWLRKKLQDVHNFVALGAPLAPRDAGSQRPRKKEDNVLVESHEKSLGEADKADVNVLTKAKSQ [PTH(1-84), Recombinant PTH(1-84) was from Chugai Pharmaceutical Co., Ltd]	run in parallel	
B1	run in parallel	4,825 pg/mL
